The list shows a part of the results.
Each sequence was assayed against OsWRKY34 (Oryza sativa, UniProt Q0JBA9 1-250) (assay: protein-binding microarray (RPBM); PBS, 2% BSA, 51.3 ng/ul salmon testes DNA, 50 uM zinc acetate, 200 nM TF, 25 C, 1 h; high values mean tight binding). Conditions: protein: recombinant; tags: N-terminal polyhistidine and DsRed monomer fusion (pET32a); label: CyDye5-dUTP incorporated in the synthesized complementary strand; 3' TTTTT single-stranded linker to array surface; dsDNA, one strand shown.
Procedure, shortened: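 Binding signal is defined as the fluorescence intensity of each feature in arbitrary units, read on an Axon 4000B scanner. Transcription factors with N-terminal polyhistidine and DsRed fusions came from E. coli BL21-CodonPlus and were purified on Ni–NTA. They were incubated at 200 nM for 1 h at 25 °C on a custom Agilent array that had been made double-stranded with Cy5-dUTP, with 50 µM zinc acetate present, and the array was washed.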

Chains of the proteins cited; added tags and fusions are not shown.
UniProt Q0JBA9, entry or part of it: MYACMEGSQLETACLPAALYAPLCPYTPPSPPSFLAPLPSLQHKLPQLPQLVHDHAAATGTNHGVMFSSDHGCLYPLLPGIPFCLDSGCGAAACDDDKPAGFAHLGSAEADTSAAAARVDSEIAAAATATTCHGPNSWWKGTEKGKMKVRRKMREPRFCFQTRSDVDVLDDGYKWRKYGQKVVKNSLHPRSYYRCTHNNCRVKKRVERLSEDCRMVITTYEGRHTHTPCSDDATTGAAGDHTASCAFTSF

Row | Sequence | binding signal
1 | CCCCACCCGATCGCCGCCGCCGCCGCCGCCGCCACCCGCGCGGAGTCACCTAGTGCAG | 10300 fluorescence intensity (a.u.)
2 | CTTATGTTGTTTAAACTATCTTACATATTCCCTCTATTTCCGGAGTCACCTAGTGCAG | 8300 fluorescence intensity (a.u.)
3 | ATGGGTTGGGACTGTCCTGGTGCGCGATTACTAACGTGGACGGAGTCACCTAGTGCAG | 8790 fluorescence intensity (a.u.)
4 | GAAGTTTTTGGCAGGGGTTAGTTTCGAATTAAGTTTTTGACGGAGTCACCTAGTGCAG | 13700 fluorescence intensity (a.u.)
5 | TCTCACATGCTTCCGTACGCCTCAACCAATTCTGATTCTGCGGAGTCACCTAGTGCAG | 8760 fluorescence intensity (a.u.)
6 | TGCATAAAAGTCTGTGTCTGAAAGTCATGTCATCACGTATCGGAGTCACCTAGTGCAG | 9370 fluorescence intensity (a.u.)
7 | ACCCTCGCTTTCTCCGATCGAATTGCTCGCCCGAGCACCACGGAGTCACCTAGTGCAG | 11300 fluorescence intensity (a.u.)
8 | GCTTGCCGTCACTCTCGTCCCGTTTGCCGCTGCACTGCACCGGAGTCACCTAGTGCAG | 10600 fluorescence intensity (a.u.)
9 | AACACACCACGGCCGCGGTCGCAACCACCACCTCCTCATCCGGAGTCACCTAGTGCAG | 8550 fluorescence intensity (a.u.)
10 | AGTGCGTGCGTACGTGCGGGAGGGAGGAGGAGGGGAGATGCGGAGTCACCTAGTGCAG | 8250 fluorescence intensity (a.u.)
11 | CATCATCTCCTTCGCGCCGTCGTCGACCACCATCACCATGCGGAGTCACCTAGTGCAG | 8220 fluorescence intensity (a.u.)
12 | GGGTATAAAGTCACTCTATTCGTTCTCACCGTTTTTTCGGCGGAGTCACCTAGTGCAG | 8150 fluorescence intensity (a.u.)
13 | CATGTCGACGATCTTCCTAATTTACATATATGTCATGCTTCGGAGTCACCTAGTGCAG | 8580 fluorescence intensity (a.u.)
14 | GCAACGCCGCCGTTTTCTTCGCCTCTCACAGAGACGACTCCGGAGTCACCTAGTGCAG | 9200 fluorescence intensity (a.u.)
15 | GGCTGTCTCCTCCTTAAGCACCTCCTGCAAAATATTATTACGGAGTCACCTAGTGCAG | 8580 fluorescence intensity (a.u.)
16 | ATTTCGATGGGTGGGCTTGGGCTGACAAACAATCACGCTCCGGAGTCACCTAGTGCAG | 13300 fluorescence intensity (a.u.)
17 | AATGTGGTGGTGGTGGTGGTGAACGGAGGAGGGAGGGAGCCGGAGTCACCTAGTGCAG | 13000 fluorescence intensity (a.u.)
18 | CCTGTGCTGACCTCCTCTACCGTGATGGCCTCCTCGACCTCGGAGTCACCTAGTGCAG | 8330 fluorescence intensity (a.u.)
19 | TTCTTAGTTGCTATATGTAGAGTTGGCTTGCATTTTTTTCCGGAGTCACCTAGTGCAG | 8810 fluorescence intensity (a.u.)
20 | CTGTCTACATCGCCCGTGTCTTGTGCGTTTGCTCTCTCGCCGGAGTCACCTAGTGCAG | 10100 fluorescence intensity (a.u.)
21 | GTGCAGCATGAAGAGGGTTGACCGGGTCGGGTTTGACTTGCGGAGTCACCTAGTGCAG | 12500 fluorescence intensity (a.u.)

Row | Sequence | binding signal
22 | GTCTTCTCCTGATCGCGGTGGTGTTTTTTTTTTTTGTTTTCGGAGTCACCTAGTGCAG | 9620 fluorescence intensity (a.u.)
23 | ATTTGTTACTCCATACTCCCTCCGTCCGTTGTACAATATACGGAGTCACCTAGTGCAG | 8070 fluorescence intensity (a.u.)
24 | ACCACCACCACCAGCGCGCGTCTCCGCCTAAACATAGCTACGGAGTCACCTAGTGCAG | 9330 fluorescence intensity (a.u.)
25 | ACATGGCTGGTCTCACTGTCAAACTGGCCCCACGCGACCACGGAGTCACCTAGTGCAG | 8320 fluorescence intensity (a.u.)
26 | AACTTGGCTGATTTTATTGAGCAGTTTGTTTTTCCAGCTTCGGAGTCACCTAGTGCAG | 8350 fluorescence intensity (a.u.)
27 | AATATACTCCATCCACACACCACACCATCTCAATATATCACGGAGTCACCTAGTGCAG | 8810 fluorescence intensity (a.u.)
28 | CTTGAGCGCGTTTGGTTCCTTGTGTGTCAAGCTTCGATGTCGGAGTCACCTAGTGCAG | 9160 fluorescence intensity (a.u.)
29 | ACATTAACTAAATGGTGGAGGGCAGGGGTTCGTCTTTCTTCGGAGTCACCTAGTGCAG | 13600 fluorescence intensity (a.u.)
30 | GATTCTGTCTCTACCTGACTGGTCTGACCTCACTCTGCTCCGGAGTCACCTAGTGCAG | 8580 fluorescence intensity (a.u.)
31 | GTCCTGTTTCTCTGTGTGGGTGGAAGGCCTCGCCTTTCAACGGAGTCACCTAGTGCAG | 8700 fluorescence intensity (a.u.)
32 | GGATTTTCTAACTTTATCGTTATTTGCACACATGAACTATCGGAGTCACCTAGTGCAG | 9170 fluorescence intensity (a.u.)
33 | CTTGCATGTGAATTGATTGTACCCATTGGATTTTGTTTTCCGGAGTCACCTAGTGCAG | 11400 fluorescence intensity (a.u.)
34 | TTCTTTTGGTTGCTGTGGTTGGTGACGGTTTTTATATTTTCGGAGTCACCTAGTGCAG | 14600 fluorescence intensity (a.u.)
35 | TACACACAAACTTTCAACTTTTCCATCACATCGTTTCAATCGGAGTCACCTAGTGCAG | 10600 fluorescence intensity (a.u.)
36 | GAATCCGTAGTTCGATCTCAACTTCGCTGTTGTGCTTGTCCGGAGTCACCTAGTGCAG | 9860 fluorescence intensity (a.u.)
37 | GCACACCATCGCCCATCAGACCCTGCCGCCGCGGTCTCTTCGGAGTCACCTAGTGCAG | 9710 fluorescence intensity (a.u.)
38 | CCTTGTTTCTTGGCCCGGTTCGTCGCCGGTGACGGTGGAACGGAGTCACCTAGTGCAG | 8680 fluorescence intensity (a.u.)
39 | TTTTGGCAGCCGTTGGTGTTTCGCAGTCAAGTGCATTGTCCGGAGTCACCTAGTGCAG | 8310 fluorescence intensity (a.u.)
40 | AACAGCCCCGAGACGCTGCCTCGCACAACTACCCGCTTTCCGGAGTCACCTAGTGCAG | 8580 fluorescence intensity (a.u.)
41 | CATTGGGATGCCTCGCCGCCGCTTCTAGGTCTTCTTCTCGCGGAGTCACCTAGTGCAG | 9620 fluorescence intensity (a.u.)
42 | AAATGGGAAGTTTGTTGTGGTTTGGCCGGTTTCTGACGCGCGGAGTCACCTAGTGCAG | 8620 fluorescence intensity (a.u.)

From entry 22 to 23, copied from above:
Row | Sequence | binding signal
22 | GTCTTCTCCTGATCGCGGTGGTGTTTTTTTTTTTTGTTTTCGGAGTCACCTAGTGCAG | 9620 fluorescence intensity (a.u.)
23 | ATTTGTTACTCCATACTCCCTCCGTCCGTTGTACAATATACGGAGTCACCTAGTGCAG | 8070 fluorescence intensity (a.u.)

From PMC7819943, “Rice protein-binding microarrays: a tool to detect cis-acting elements near promoter regions in rice”
